No constants are given. Whether binding was seen depends on the method and setting. Binding seen in cells or lysates may run through a third protein. Some binding calls cover weakened binding; strength is not graded here.
Molecular target: PBP4, endogenous in E. coli BW25113 cells (E. coli (endogenous in BW25113)) (UniProt P24228)
Assay: cross-linking + co-IP; growing BW25113 cells cross-linked with DTSSP; solubilised membrane extract immunoprecipitated with purified anti-PBP4 antibody; cross-linker cleaved by reducing agent; partner detected by Western blot; controls ΔdacB cells and no antibody

Sequences of proteins named here, by UniProt entry; tags and fusion partners are left off. Residues count along the entry.
UniProt P24228, residues 21-477: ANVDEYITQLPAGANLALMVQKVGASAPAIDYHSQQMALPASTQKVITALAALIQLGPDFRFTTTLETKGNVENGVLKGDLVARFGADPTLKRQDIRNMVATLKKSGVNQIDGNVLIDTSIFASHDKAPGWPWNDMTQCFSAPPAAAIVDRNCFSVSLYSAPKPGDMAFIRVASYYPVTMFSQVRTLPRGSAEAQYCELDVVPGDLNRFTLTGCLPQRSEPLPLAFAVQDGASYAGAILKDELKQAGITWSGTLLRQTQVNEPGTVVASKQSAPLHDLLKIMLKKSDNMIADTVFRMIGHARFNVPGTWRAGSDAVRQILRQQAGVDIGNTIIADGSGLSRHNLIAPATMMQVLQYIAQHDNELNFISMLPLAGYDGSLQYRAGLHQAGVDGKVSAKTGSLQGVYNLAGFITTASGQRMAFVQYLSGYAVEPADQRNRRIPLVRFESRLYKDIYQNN

Row | Binder | binding
1 | PBP1A, purified (full length His-PBP1A) (enzyme) MKFVKYFLILAVCCILLGAGSIYGLYRYIEPQLPDVATLKDVRLQIPMQIYSADGELIAQYGEKRRIPVTLDQIPPEMVKAFIATEDSRFYEHHGVDPVGIFRAASVALFSGHASQGASTITQQLARNFFLSPERTLMRKIKEVFLAIRIEQLLTKDEILELYLNKIYLGYRAYGVGAAAQVYFGKTVDQLTLNEMAVIAGLPKAPSTFNPLYSMDRAVARRNVVLSRMLDEGYITQQQFDQTRTEAINANYHAPEIAFSAPYLSEMVRQEMYNRYGESAYEDGYRIYTTITRKVQQAAQQAVRNNVLDYDMRHGYRGPANVLWKVGESAWDNNKITDTLKALPTYGPLLPAAVTSANPQQATAMLADGSTVALSMEGVRWARPYRSDTQQGPTPRKVTDVLQTGQQIWVRQVGDAWWLAQVPEVNSALVSINPQNGAVMALVGGFDFNQSKFNRATQALRQVGSNIKPFLYTAAMDKGLTLASMLNDVPISRWDASAGSDWQPKNSPPQYAGPIRLRQGLGQSKNVVMVRAMRAMGVDYAAEYLQRFGFPAQNIVHTESLALGSASFTPMQVARGYAVMANGGFLVDPWFISKIENDQGGVIFEAKPKVACPECDIPVIYGDTQKSNVLENNDVEDVAISREQQNVSVPMPQLEQANQALVAKTGAQEYAPHVINTPLAFLIKSALNTNIFGEPGWQGTGWRAGRDLQRRDIGGKTGTTNSSKDAWFSGYGPGVVTSVWIGFDDHRRNLGHTTASGAIKDQISGYEGGAKSAQPAWDAYMKAVLEGVPEQPLTPPPGIVTVNIDRSTGQLANGGNSREEYFIEGTQPTQQAVHEVGTTIIDNGEAQELF | binds
2 | LpoA, endogenous in E. coli BW25113 cells (protein, UniProt P45464 27-678) CGTHTPDQSTAYMQGTAQADSAFYLQQMQQSSDDTRINWQLLAIRALVKEGKTGQAVELFNQLPQELNDAQRREKTLLAVEIKLAQKDFAGAQNLLAKITPADLEQNQQARYWQAKIDASQGRPSIDLLRALIAQEPLLGAKEKQQNIDATWQALSSMTQEQANTLVINADENILQGWLDLQRVWFDNRNDPDMMKAGIADWQKRYPNNPGAKMLPTQLVNVKAFKPASTNKIALLLPLNGQAAVFGRTIQQGFEAAKNIGTQPVAAQVAAAPAADVAEQPQPQTVDGVASPAQASVSDLTGEQPAAQPVPVSAPATSTAAVSAPANPSAELKIYDTSSQPLSQILSQVQQDGASIVVGPLLKNNVEELLKSNTPLNVLALNQPENIENRVNICYFALSPEDEARDAARHIRDQGKQAPLVLIPRSSLGDRVANAFAQEWQKLGGGTVLQQKFGSTSELRAGVNGGSGIALTGSPITLRATTDSGMTTNNPTLQTTPTDDQFTNNGGRVDAVYIVATPGEIAFIKPMIAMRNGSQSGATLYASSRSAQGTAGPDFRLEMEGLQYSEIPMLAGGNLPLMQQALSAVNNDYSLARMYAMGVDAWSLANHFSQMRQVQGFEINGNTGSLTANPDCVINRNLSWLQYQQGQVVPVS | binds
